Source: patent EP1649856A2, “Use of pimecrolimus for selective immunomodulation” (Novartis AG, priority 2001, dated 2002)
For at least one compound, name, drawing or mass did not settle the structure.

Test system: SCID mice reconstituted with CD4^+CD45RB^HI T cells
Experiment: SCID-IBD mouse model, treatment from day 1 for 4 weeks
Type: in vivo
From the text: A well-established animal model for IBD exists (see Leach et al., Am. J. Pathol., Vol. 148, No. 5, pp. 1503-1515 (1996), and Powrie et al., Int. Immunol., Vol. 5, No. 11, pp. 1461-1471 (1993)). It is known that the transfer of syngeneic, naive T lymphocytes (CD4^+CD45RB^HI) into SCID mice results in a severe colitis and wasting disease, SCID-IBD. Histopathologically, features of both CD and UC are represented in this model which has been used throughout the 1990s to bring the understanding of the pathoetiology of this disease of immune dysregulation in man to its present status. […]
In this study, SCID mice were reconstituted with 2 x 10^5 CD4^+CD45RB^HI T cells and then treated with pimecrolimus (30, 60 and 100 mg/kg/day) or vehicle daily p.o. for 4 weeks. […] BW was monitored throughout. […] Serum haptoglobin levels were measured (ELISA), colitis was assessed histologically and lymphocyte and neutrophil numbers were calculated from FACS analysis of blood, spleen and MLN cell suspensions.
In order to determine the efficacy of ASM981 treatment in preventing intestinal mucosal damage in SCID-IBD mice, a histological examination of the colon sections was performed according to defined morphological parameters. All colon sections were assessed according to a scheme awarding degrees of severity governed by the extent of cell infiltration and inflammation with a score of 8 being the maximum.

SMILES: C[C@@H]1C[C@H]2[C@@H]3CCC4=CC(=O)C=C[C@]4(C)[C@@]3(F)[C@@H](O)C[C@]2(C)[C@@]1(O)C(=O)CO [Dexamethasone, reference compound]
- effect on colitis (3 and 10 mg/kg/day p.o.): inhibited the colitis
- lymphocyte numbers in blood, spleen and MLN (at colitis-inhibiting doses): strongly inhibited
